Data as given in article PMC7819943, “Rice protein-binding microarrays: a tool to detect cis-acting elements near promoter regions in rice”.
The other results are listed elsewhere or left out.

By UniProt entry, the sequences of proteins in these tests, tags left out.
UniProt Q0JBA9, entry or part of it: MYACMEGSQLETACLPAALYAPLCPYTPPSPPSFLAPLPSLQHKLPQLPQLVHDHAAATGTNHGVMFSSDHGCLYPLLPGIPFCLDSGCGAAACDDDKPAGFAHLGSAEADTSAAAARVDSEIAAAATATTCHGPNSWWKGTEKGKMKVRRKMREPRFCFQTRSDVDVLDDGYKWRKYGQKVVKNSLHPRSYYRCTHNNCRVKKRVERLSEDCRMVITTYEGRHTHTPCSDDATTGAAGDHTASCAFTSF

What follows are sequences tested against OsWRKY34 (Oryza sativa, UniProt Q0JBA9 1-250) (assay: protein-binding microarray (RPBM); PBS, 2% BSA, 51.3 ng/ul salmon testes DNA, 50 uM zinc acetate, 200 nM TF, 25 C, 1 h; high values mean tight binding). Details: protein: recombinant; tags: N-terminal polyhistidine and DsRed monomer fusion (pET32a); label: CyDye5-dUTP incorporated in the synthesized complementary strand; 3' TTTTT single-stranded linker to array surface; dsDNA, one strand shown.
Procedure, shortened: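 Binding signal here means per-feature fluorescence intensity in arbitrary units. The values were read on an Axon 4000B scanner after a custom Agilent array, double-stranded by primer extension with Cy5-dUTP, was incubated with 200 nM protein at 25 °C for 1 h in PBS with 2% BSA, salmon testes DNA and 50 µM zinc acetate, then washed. The proteins were transcription factors with an N-terminal polyhistidine tag and DsRed, expressed in E. coli BL21-CodonPlus and purified on Ni–NTA.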
For “ACTGCTTGGTCATTGTCGGATTCTCCTGTTGCCCTATGGTCGGAGTCACCTAGTGCAG”, the binding signal was 10100 fluorescence intensity (a.u.).
With “ACCATGACATGTCTTCTACCACCCGATCACTTATGCTTTCCGGAGTCACCTAGTGCAG” the binding signal was 10500 fluorescence intensity (a.u.).
With “ATCTCCCTGAAGATGTGTGCTTTGTGATGAATTTTTTATACGGAGTCACCTAGTGCAG” the binding signal was 8060 fluorescence intensity (a.u.).
In the case of “ATCGCTGTCACGTTTTCCATCATCTTCCCCATCTACACGTCGGAGTCACCTAGTGCAG”, the binding signal is reported as 8030 fluorescence intensity (a.u.).
In the case of “TTCTCTTCCTTTCCCCTGCCCTTGCACCGCCGCCGCCTTGCGGAGTCACCTAGTGCAG”, the binding signal is reported as 8160 fluorescence intensity (a.u.).
With “GCATAAGAAAGGTCAATCTCATTCTCATCTAACCAACCCTCGGAGTCACCTAGTGCAG” the binding signal was 8100 fluorescence intensity (a.u.).
In the case of “TTTCTTTGTGTTTTGTTTCCTTGTAGGGTATGCTAGATCTCGGAGTCACCTAGTGCAG”, the binding signal is reported as 9740 fluorescence intensity (a.u.).
“GCTCGCTTACCTGCTCGCGTTCCATATATCCAGCTGCAGTCGGAGTCACCTAGTGCAG” was tested, and the binding signal was 9160 fluorescence intensity (a.u.).
“CGAAACAGTACACAATCAGCGGGTGGGTGATCTATCGATACGGAGTCACCTAGTGCAG” was tested, and the binding signal was 8810 fluorescence intensity (a.u.).
In the case of “AACAGCTCTCGATCTGATCGTCCCCACACCGCACGCTGACCGGAGTCACCTAGTGCAG”, the binding signal is reported as 9930 fluorescence intensity (a.u.).
For “ATATATATATATATATATATAGACGTATTCCTGTATCCGCCGGAGTCACCTAGTGCAG”, the binding signal was 21000 fluorescence intensity (a.u.).
With “CGGAATATATCCATGGGTGGCCTTGTTTTGAAGATTTAATCGGAGTCACCTAGTGCAG” the binding signal was 8990 fluorescence intensity (a.u.).
With “ATCTCAAGGCTTCCATAATTTACTTACCATGTGTTTTGACCGGAGTCACCTAGTGCAG” the binding signal was 8950 fluorescence intensity (a.u.).
“ATAACTAGCCCAACACCACGTCCGTTCGACCGTCCCCATCCGGAGTCACCTAGTGCAG” was tested, and the binding signal was 10000 fluorescence intensity (a.u.).
“TTATAGCCATTGTACTCCTCGTCTACTCCTTAGGATGTTGCGGAGTCACCTAGTGCAG” was tested, and the binding signal was 8580 fluorescence intensity (a.u.).
“TCTTTATTTATGCCCGTCGTTCAGTTAGTGGTGGAATTATCGGAGTCACCTAGTGCAG” was tested, and the binding signal was 8060 fluorescence intensity (a.u.).
For “TACGGAATTTCTCGAACAGAATAGTTTTCATGTTTTTCACCGGAGTCACCTAGTGCAG”, the binding signal was 8100 fluorescence intensity (a.u.).
With “CCACGCATACGCTTTCCGTACTAATAATTGTTACTTTTTACGGAGTCACCTAGTGCAG” the binding signal was 8500 fluorescence intensity (a.u.).
For “TCCCTTTCCTTTGCGCGCATTTTTTTTTTGTCAGGAAACACGGAGTCACCTAGTGCAG”, the binding signal was 10600 fluorescence intensity (a.u.).
With “GGCAGTATTTTCATTTTCTTTATTTAATGAACTATTTTCTCGGAGTCACCTAGTGCAG” the binding signal was 9600 fluorescence intensity (a.u.).
In the case of “CTCCTCACCTCTTCTTGTTCTTCTTCTCTCTCTCTTGTCACGGAGTCACCTAGTGCAG”, the binding signal is reported as 10400 fluorescence intensity (a.u.).
With “AAATCGGCTCCACCTTCCCTGTCACCATGCTAATCTTTCCCGGAGTCACCTAGTGCAG” the binding signal was 8360 fluorescence intensity (a.u.).
For “GGCCTGTATGTAGTTATATATTTTTTCATCAATTTATGCTCGGAGTCACCTAGTGCAG”, the binding signal was 8250 fluorescence intensity (a.u.).
